Results are given in words; binding and its absence hold for the method and conditions named. Binding can be weak; no strength is given.
Biological target: Type IV human collagen (human)
Experiment: competition in the dried collagen assay

binding: binds
Binder: KKWHCYTYFPHHYCVYG (N-terminal Gd^D; K(Gd^D) 1, 2) [Compound ID 1014]
